This is one part of the list.
Columns and labels:
Assay in all cases: log2 fold change, soluble protein after heating vs DMSO (PISA); higher = thermal stabilisation; K562 lysate, 10 uM; active = over 0.2 and 3.5 SD of the protein, either way, in both replicates (recomputed)
nilotinib = compound: Cc1cn(-c2cc(NC(=O)c3ccc(C)c(Nc4nccc(-c5cccnc5)n4)c3)cc(C(F)(F)F)c2)cn1 [nilotinib]
Procedure, shortened: (§1)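 Quantification was by TMTpro 16plex LC-MS/MS with equalised channel sums, applied to the supernatant after 21,000xg for 90 min. Samples were crude K562 extract at 1 mg/mL protein in PBS pH 7.4 with 1 mM MgCl2, treated with 10 μM compound for 30 min, heated for 3 min across 48°C-58°C, pooled and brought to 0.5% NP-40 at 4°C. Values are log-two fold changes in thermal stability relative to solvent controls, from duplicates.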

Amino acid sequences for entries named in this document (tags omitted). A change or cut given only in a name is not applied to a line headed by its entry.
UniProt Q9NXR1: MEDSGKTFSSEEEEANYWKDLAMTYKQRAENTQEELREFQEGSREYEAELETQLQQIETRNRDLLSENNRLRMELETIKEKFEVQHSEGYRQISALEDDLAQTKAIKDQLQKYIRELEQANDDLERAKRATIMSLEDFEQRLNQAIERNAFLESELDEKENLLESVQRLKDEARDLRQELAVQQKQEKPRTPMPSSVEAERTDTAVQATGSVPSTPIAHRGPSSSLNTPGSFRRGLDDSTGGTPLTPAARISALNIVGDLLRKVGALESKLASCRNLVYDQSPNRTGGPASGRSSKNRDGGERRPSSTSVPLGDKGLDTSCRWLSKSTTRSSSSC
UniProt Q330K2: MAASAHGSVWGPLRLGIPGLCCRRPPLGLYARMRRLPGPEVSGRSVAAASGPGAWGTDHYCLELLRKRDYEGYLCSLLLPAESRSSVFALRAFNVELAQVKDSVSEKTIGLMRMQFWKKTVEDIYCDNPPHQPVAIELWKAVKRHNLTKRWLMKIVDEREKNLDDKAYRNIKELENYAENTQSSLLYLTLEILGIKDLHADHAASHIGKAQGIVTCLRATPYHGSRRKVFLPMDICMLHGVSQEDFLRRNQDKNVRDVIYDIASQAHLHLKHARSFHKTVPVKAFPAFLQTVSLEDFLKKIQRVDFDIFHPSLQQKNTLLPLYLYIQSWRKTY
UniProt Q86Y39, whole entry, looked up: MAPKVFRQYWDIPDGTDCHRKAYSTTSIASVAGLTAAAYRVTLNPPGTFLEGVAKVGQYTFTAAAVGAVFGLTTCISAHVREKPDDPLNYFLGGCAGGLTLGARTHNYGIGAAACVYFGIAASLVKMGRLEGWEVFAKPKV
UniProt Q9GZT8: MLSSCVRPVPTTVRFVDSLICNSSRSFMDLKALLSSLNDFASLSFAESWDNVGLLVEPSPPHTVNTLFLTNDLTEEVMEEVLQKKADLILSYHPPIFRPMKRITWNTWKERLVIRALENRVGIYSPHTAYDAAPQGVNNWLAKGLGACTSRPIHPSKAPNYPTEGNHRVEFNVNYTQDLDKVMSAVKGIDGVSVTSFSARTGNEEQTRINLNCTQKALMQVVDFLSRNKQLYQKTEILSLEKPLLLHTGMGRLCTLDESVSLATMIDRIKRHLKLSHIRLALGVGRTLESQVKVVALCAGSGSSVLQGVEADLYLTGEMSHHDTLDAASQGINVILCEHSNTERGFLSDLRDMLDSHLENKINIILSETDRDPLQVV
UniProt P52848: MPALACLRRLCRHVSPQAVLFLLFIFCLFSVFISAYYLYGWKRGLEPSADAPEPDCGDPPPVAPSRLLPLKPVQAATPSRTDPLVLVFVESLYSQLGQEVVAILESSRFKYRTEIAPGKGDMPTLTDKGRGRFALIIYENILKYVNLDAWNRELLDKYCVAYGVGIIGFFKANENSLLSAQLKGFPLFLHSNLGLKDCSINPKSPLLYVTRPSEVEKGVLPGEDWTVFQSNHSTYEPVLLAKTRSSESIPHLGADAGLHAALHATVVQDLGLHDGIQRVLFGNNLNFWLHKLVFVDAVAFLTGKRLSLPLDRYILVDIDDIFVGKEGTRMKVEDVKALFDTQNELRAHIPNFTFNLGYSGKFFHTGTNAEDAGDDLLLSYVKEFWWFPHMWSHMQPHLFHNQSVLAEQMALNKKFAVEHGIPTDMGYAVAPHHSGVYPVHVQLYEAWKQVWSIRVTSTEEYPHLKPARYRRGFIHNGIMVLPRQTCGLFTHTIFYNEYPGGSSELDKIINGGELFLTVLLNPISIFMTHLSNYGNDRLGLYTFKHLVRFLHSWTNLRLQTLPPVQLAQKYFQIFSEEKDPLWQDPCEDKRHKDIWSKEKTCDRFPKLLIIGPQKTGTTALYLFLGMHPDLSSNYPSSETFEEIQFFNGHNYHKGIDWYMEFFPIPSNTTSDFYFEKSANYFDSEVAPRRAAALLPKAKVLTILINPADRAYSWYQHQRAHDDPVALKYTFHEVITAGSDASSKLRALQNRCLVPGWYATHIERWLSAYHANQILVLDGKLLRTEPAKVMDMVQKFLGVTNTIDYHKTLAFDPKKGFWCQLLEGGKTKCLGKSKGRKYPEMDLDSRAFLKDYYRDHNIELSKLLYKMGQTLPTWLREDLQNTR
UniProt O76041: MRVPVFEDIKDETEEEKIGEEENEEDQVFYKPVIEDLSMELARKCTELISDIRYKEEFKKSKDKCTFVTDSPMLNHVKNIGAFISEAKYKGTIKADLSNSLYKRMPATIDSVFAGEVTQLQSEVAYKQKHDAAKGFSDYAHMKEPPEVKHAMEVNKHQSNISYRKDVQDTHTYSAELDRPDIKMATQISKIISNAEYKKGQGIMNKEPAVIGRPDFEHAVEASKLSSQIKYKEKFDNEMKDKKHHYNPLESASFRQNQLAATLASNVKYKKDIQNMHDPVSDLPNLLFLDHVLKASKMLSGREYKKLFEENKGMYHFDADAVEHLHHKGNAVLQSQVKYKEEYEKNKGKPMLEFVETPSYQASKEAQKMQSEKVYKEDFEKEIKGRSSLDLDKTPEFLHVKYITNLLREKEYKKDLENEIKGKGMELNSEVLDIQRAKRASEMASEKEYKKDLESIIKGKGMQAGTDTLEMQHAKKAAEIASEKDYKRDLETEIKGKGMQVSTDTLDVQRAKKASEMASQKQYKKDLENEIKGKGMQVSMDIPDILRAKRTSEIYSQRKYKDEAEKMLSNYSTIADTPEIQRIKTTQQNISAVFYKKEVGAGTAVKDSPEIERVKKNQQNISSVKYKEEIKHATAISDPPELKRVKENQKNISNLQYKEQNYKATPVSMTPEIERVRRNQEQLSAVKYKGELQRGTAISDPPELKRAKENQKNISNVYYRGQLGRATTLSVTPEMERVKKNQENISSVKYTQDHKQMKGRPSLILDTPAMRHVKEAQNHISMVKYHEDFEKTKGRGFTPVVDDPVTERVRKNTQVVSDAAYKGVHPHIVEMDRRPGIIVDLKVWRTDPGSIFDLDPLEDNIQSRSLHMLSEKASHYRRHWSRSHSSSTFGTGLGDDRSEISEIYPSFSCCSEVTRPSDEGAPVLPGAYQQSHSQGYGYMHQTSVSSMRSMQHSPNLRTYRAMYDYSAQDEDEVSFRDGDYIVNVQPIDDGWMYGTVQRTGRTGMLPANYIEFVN
UniProt P51970, whole entry, looked up: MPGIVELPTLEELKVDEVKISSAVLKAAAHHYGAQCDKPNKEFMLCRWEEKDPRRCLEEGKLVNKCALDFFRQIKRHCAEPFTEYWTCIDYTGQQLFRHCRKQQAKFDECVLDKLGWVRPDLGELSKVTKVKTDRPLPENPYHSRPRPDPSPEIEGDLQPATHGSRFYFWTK
UniProt Q7L592: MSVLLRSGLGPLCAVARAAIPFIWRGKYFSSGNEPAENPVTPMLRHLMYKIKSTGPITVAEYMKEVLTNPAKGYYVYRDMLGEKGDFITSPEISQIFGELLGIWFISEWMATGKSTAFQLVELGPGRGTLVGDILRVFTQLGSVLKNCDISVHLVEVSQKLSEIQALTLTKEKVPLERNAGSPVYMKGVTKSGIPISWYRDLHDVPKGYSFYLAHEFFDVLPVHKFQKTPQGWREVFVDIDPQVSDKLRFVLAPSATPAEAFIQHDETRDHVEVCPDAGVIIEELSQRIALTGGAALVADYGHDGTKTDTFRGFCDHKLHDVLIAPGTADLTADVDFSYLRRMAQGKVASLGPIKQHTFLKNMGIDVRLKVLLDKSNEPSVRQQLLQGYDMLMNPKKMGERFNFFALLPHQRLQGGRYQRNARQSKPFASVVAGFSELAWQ
UniProt Q8NCF5: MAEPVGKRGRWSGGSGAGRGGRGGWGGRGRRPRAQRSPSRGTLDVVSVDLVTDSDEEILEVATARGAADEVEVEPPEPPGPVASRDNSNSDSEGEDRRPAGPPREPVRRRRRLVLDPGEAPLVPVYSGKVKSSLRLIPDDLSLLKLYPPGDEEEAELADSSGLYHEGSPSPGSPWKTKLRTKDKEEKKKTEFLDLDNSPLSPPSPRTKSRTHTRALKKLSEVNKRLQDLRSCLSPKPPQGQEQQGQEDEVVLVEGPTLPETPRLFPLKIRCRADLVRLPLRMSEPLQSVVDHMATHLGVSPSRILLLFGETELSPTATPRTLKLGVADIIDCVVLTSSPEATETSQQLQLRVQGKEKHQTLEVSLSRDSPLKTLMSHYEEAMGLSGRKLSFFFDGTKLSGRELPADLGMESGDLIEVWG
UniProt Q9UMS0: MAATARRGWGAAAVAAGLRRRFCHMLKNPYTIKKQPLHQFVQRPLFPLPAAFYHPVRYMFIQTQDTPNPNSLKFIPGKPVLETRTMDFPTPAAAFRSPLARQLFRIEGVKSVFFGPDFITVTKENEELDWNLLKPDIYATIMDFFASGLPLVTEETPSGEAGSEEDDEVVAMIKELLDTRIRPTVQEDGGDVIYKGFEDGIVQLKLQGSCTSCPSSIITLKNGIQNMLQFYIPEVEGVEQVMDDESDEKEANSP
UniProt Q9BYT8, whole entry, looked up: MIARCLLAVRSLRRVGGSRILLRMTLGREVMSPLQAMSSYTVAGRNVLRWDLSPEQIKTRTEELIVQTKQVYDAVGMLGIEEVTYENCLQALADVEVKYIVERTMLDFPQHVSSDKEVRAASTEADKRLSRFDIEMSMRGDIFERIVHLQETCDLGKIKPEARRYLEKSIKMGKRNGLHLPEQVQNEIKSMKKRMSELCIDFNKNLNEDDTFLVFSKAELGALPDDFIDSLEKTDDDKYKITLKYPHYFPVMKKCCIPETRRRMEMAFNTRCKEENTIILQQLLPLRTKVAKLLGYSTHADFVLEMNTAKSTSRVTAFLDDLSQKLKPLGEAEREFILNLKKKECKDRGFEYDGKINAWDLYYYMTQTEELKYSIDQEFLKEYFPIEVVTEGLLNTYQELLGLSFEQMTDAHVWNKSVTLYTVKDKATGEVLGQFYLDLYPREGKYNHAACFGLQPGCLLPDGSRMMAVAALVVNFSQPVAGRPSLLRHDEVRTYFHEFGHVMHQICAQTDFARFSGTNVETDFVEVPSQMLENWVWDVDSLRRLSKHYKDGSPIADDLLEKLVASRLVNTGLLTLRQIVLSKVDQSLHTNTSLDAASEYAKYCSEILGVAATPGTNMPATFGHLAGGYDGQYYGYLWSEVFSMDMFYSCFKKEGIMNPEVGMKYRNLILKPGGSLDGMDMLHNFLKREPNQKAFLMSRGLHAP
UniProt Q9Y2I1: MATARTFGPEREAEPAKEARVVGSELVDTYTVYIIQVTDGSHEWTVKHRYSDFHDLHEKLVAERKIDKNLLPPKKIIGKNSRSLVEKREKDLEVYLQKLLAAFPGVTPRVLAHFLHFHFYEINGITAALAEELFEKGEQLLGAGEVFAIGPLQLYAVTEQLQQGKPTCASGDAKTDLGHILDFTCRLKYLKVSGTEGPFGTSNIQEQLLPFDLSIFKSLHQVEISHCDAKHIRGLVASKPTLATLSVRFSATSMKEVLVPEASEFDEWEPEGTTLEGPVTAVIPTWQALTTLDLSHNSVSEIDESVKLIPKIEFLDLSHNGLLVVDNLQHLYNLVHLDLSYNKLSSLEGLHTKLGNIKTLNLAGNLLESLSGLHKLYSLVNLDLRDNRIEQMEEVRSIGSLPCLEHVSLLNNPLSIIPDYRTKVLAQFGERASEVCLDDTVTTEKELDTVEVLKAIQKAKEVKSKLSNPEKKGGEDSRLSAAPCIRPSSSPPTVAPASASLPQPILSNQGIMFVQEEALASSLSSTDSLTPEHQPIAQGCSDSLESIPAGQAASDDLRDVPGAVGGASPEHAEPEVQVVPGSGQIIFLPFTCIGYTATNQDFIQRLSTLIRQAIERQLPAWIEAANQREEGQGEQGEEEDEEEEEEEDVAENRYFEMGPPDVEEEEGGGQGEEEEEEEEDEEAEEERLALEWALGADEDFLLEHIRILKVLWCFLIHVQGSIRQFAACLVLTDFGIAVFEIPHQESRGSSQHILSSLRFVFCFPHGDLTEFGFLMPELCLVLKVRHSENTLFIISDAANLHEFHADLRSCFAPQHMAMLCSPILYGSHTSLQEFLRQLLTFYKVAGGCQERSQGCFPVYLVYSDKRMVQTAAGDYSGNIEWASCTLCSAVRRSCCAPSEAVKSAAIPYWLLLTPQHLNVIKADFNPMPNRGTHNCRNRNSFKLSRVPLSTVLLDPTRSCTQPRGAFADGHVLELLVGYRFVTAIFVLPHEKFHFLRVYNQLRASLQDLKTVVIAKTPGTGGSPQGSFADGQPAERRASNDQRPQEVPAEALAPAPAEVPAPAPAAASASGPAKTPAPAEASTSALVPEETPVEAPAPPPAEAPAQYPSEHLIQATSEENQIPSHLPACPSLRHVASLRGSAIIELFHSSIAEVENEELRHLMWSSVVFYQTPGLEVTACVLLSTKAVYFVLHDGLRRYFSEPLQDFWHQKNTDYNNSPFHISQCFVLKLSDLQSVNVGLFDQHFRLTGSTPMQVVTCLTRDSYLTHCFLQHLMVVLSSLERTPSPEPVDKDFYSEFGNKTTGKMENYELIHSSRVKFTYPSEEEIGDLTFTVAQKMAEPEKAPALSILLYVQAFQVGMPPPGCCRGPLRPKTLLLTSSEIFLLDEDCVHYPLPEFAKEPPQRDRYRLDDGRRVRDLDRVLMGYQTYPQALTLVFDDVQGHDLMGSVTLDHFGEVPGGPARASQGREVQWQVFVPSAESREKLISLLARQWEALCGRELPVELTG

[1] = compound: Cc1nc(Nc2n[nH]c3c2CN(C(=O)N[C@H](CN(C)C)c2ccccc2)C3(C)C)c2sccc2n1
Procedure, shortened: as §1

dasatinib = compound: Cc1nc(Nc2ncc(C(=O)Nc3c(C)cccc3Cl)s2)cc(N2CCN(CCO)CC2)n1 [dasatinib]
Procedure, shortened: as §1

[2] = compound: Cc1ncc(-c2ccnc(Nc3ccc(S(C)(=O)=O)cc3)n2)n1C(C)C
Procedure, shortened: as §1

[3] = compound: Cn1cc(-c2ccc3c(c2)CCN3C(=O)Cc2cccc(C(F)(F)F)c2)c2c(N)ncnc21
Procedure, shortened: as §1

quisinostat = compound: Cn1cc(CNCC2CCN(c3ncc(C(=O)NO)cn3)CC2)c2ccccc21 [quisinostat]
Procedure, shortened: as §1

tipifarnib = compound: Cn1cncc1[C@@](N)(c1ccc(Cl)cc1)c1ccc2c(c1)c(-c1cccc(Cl)c1)cc(=O)n2C [tipifarnib]
Procedure, shortened: as §1

[4] = compound: NC(=O)Nc1cc(-c2cccc(F)c2)sc1C(=O)N[C@H]1CCCNC1
Procedure, shortened: as §1

[5] = compound: NC(=O)c1cnc(N[C@@H]2CCCC[C@@H]2N)nc1Nc1cccc(-n2nccn2)c1
Procedure, shortened: as §1

[6] = compound: NC1(c2ccc(-c3nc4ccn5c(=O)[nH]nc5c4cc3-c3ccccc3)cc2)CCC1
Procedure, shortened: as §1

Measured: log2 fold change

NEK9 (UniProt Q8TD19)
inactive: nilotinib -0.024 | [1] 0.13 | dasatinib -0.002 | [2] 0.007 | [3] 0.001 | quisinostat -0.042 | tipifarnib -0.018 | [4] 0.033 | [5] 0.003 | [6] -0.026

NIBAN1 (UniProt Q9BZQ8)
inactive: nilotinib 0.016 | [1] 0.036 | dasatinib -0.029 | [2] -0.015 | [3] 0.02 | quisinostat -0.013 | tipifarnib -0.03 | [4] 0.008 | [5] 0.007 | [6] -0.03

NDE1 isoform 1 (UniProt Q9NXR1)
inactive: nilotinib 0.046 | [1] 0.005 | dasatinib 0.019 | [2] -0.011 | [3] 0.039 | quisinostat -0.023 | tipifarnib -0.014 | [4] -0.02 | [5] 0.035 | [6] -0.028

NDUFAF6 (UniProt Q330K2)
inactive: nilotinib 0.023 | [1] -0.055 | dasatinib -0.203 | [2] -0.075 | [3] 0.209 | quisinostat -0.097 | tipifarnib -0.067 | [4] 0.107 | [5] -0.02 | [6] -0.052

NEU3 isoform 2 (UniProt Q9UQ49)
inactive: nilotinib -0.041 | [1] -0.195 | dasatinib 0.082 | [2] 0.011 | [3] -0.147 | quisinostat 0.017 | tipifarnib -0.034 | [4] 0.032 | [5] 0.003 | [6] 0.123

NDUFA4 (UniProt O00483)
inactive: nilotinib 0.062 | [1] 0.058 | dasatinib 0.043 | [2] 0.16 | [3] -0.007 | quisinostat 0.104 | tipifarnib 0.031 | [4] -0.065 | [5] 0.08 | [6] 0.019

NDUFA11 (UniProt Q86Y39)
inactive: nilotinib 0.092 | [1] -0.027 | dasatinib 0.02 | [2] 0.013 | [3] -0.019 | quisinostat 0.032 | tipifarnib -0.011 | [4] 0 | [5] -0.047 | [6] 0.054

NIF3L1 (UniProt Q9GZT8)
inactive: nilotinib -0.005 | [1] -0.004 | dasatinib 0.022 | [2] 0.011 | [3] -0.03 | quisinostat 0.005 | tipifarnib -0.025 | [4] -0.008 | [5] -0.022 | [6] 0.008

NEU1 (UniProt Q99519)
inactive: nilotinib 0.063 | [1] 0.02 | dasatinib -0.012 | [2] 0.194 | [3] -0.003 | quisinostat -0.011 | tipifarnib -0.071 | [4] -0.014 | [5] -0.02 | [6] 0.003

NFS1 (UniProt Q9Y697)
inactive: nilotinib -0.007 | [1] 0.001 | dasatinib -0.016 | [2] 0.021 | [3] 0.004 | quisinostat 0.01 | tipifarnib 0.018 | [4] 0.026 | [5] 0.017 | [6] -0.024

2 neighbouring entries from above, for reference:
NDUFA4 (UniProt O00483)
inactive: nilotinib 0.062 | [1] 0.058 | dasatinib 0.043 | [2] 0.16 | [3] -0.007 | quisinostat 0.104 | tipifarnib 0.031 | [4] -0.065 | [5] 0.08 | [6] 0.019

NDUFA11 (UniProt Q86Y39)
inactive: nilotinib 0.092 | [1] -0.027 | dasatinib 0.02 | [2] 0.013 | [3] -0.019 | quisinostat 0.032 | tipifarnib -0.011 | [4] 0 | [5] -0.047 | [6] 0.054

The listing continues.

NECAP2 (UniProt Q9NVZ3)
inactive: nilotinib 0.029 | [1] -0.016 | dasatinib 0.05 | [2] 0.029 | [3] -0.001 | quisinostat -0.022 | tipifarnib 0.007 | [4] 0.003 | [5] -0.012 | [6] 0.028

NFATC4 isoform 2 (UniProt Q14934)
inactive: nilotinib -0.046 | [1] -0.018 | dasatinib 0.055 | [2] 0.04 | [3] -0.041 | quisinostat -0.07 | tipifarnib -0.066 | [4] 0.01 | [5] -0.017

NFYB (UniProt P25208)
inactive: nilotinib -0.024 | [1] 0.037 | dasatinib 0.047 | [2] 0.036 | [3] 0.016 | quisinostat -0.024 | tipifarnib -0.005 | [4] -0.025 | [5] 0.077 | [6] -0.063

NDST1 (UniProt P52848)
inactive: nilotinib -0.174 | [1] -0.085 | dasatinib -0.015 | [2] -0.002 | [3] 0.03 | quisinostat 0.009 | tipifarnib -0.016 | [4] 0.002 | [5] 0.099 | [6] -0.05

NEBL isoform 2 (UniProt O76041)
inactive: nilotinib -0.022 | [1] -0.001 | dasatinib -0.029 | [2] 0.015 | [3] -0.072 | quisinostat 0.012 | tipifarnib -0.021 | [4] -0.017 | [5] -0.027 | [6] -0.007

NEFH (UniProt P12036)
inactive: nilotinib -0.026 | [1] -0.052 | dasatinib 0.047 | [2] 0.025 | [3] 0.012 | quisinostat -0.04 | tipifarnib 0.004 | [4] 0.041 | [5] -0.012 | [6] -0.053

NDUFA8 (UniProt P51970)
inactive: nilotinib -0.179 | [1] -0.086 | dasatinib 0.017 | [2] -0.096 | [3] 0.095 | quisinostat -0.052 | tipifarnib -0.01 | [4] -0.023 | [5] -0.007 | [6] 0.028

NELFA (UniProt Q9H3P2)
inactive: nilotinib -0.018 | [1] -0.01 | dasatinib -0.064 | [2] -0.02 | [3] -0.009 | quisinostat -0.007 | tipifarnib 0.024 | [4] 0.03 | [5] 0.048 | [6] -0.014

NDUFAF7 (UniProt Q7L592)
inactive: nilotinib 0.068 | [1] -0.06 | dasatinib 0 | [2] 0.016 | [3] -0.026 | quisinostat 0.002 | tipifarnib -0.01 | [4] 0.01 | [5] -0.03 | [6] 0.014

NFATC2IP (UniProt Q8NCF5)
inactive: nilotinib 0.027 | [1] -0.015 | dasatinib 0.071 | [2] -0.055 | [3] 0.005 | quisinostat 0.019 | tipifarnib 0.061 | [4] 0 | [5] -0.015 | [6] 0.03

NIPA2 (UniProt Q8N8Q9)
inactive: nilotinib 0.034 | [1] -0.092 | dasatinib 0.024 | [2] 0.109 | [3] -0.24 | quisinostat -0.053 | tipifarnib -0.019 | [4] 0.005 | [5] -0.065 | [6] 0.05

NDC80 (UniProt O14777)
inactive: nilotinib -0.008 | [1] 0.005 | dasatinib -0.05 | [2] -0.006 | [3] 0.025 | quisinostat -0.022 | tipifarnib 0 | [4] -0.002 | [5] 0.007 | [6] 0.002

NEDD4 isoform 4 (UniProt P46934)
inactive: nilotinib -0.007 | [1] -0.039 | dasatinib -0.011 | [2] 0.009 | [3] 0.026 | quisinostat 0.05 | tipifarnib -0.001 | [4] 0.014 | [5] 0.003 | [6] -0.004

NFU1 (UniProt Q9UMS0)
inactive: nilotinib 0.027 | [1] -0.024 | dasatinib 0.021 | [2] 0.012 | [3] -0.031 | quisinostat 0.036 | tipifarnib 0.067 | [4] -0.012 | [5] -0.003 | [6] -0.008

NLN (UniProt Q9BYT8)
inactive: nilotinib 0.029 | [1] 0 | dasatinib 0.004 | [2] -0.002 | [3] -0.001 | quisinostat -0.006 | tipifarnib 0.002 | [4] -0.01 | [5] -0.01 | [6] 0

NDUFS3 (UniProt O75489)
inactive: nilotinib -0.007 | [1] -0.033 | dasatinib 0.023 | [2] -0.017 | [3] 0.025 | quisinostat 0.069 | tipifarnib 0.005 | [4] -0.013 | [5] 0.001 | [6] 0.026

NISCH (UniProt Q9Y2I1)
inactive: nilotinib 0.029 | [1] 0.014 | dasatinib 0.003 | [2] -0.041 | [3] 0.049 | quisinostat -0.013 | tipifarnib 0.024 | [4] 0.036 | [5] 0.02 | [6] 0.012

NDUFS7 (UniProt O75251)
inactive: nilotinib 0.027 | [1] -0.022 | dasatinib -0.033 | [2] -0.015 | [3] 0.027 | quisinostat -0.014 | tipifarnib -0.025 | [4] -0.062 | [5] 0.026 | [6] -0.017

NIP7 (UniProt Q9Y221)
inactive: nilotinib 0.024 | [1] 0 | dasatinib 0.051 | [2] 0.002 | [3] -0.006 | quisinostat 0.026 | tipifarnib -0.013 | [4] 0.021 | [5] -0.006 | [6] 0.003

NELFE (UniProt P18615)
inactive: nilotinib -0.013 | [1] -0.01 | dasatinib 0.003 | [2] 0.01 | [3] -0.015 | quisinostat -0.068 | tipifarnib -0.013 | [4] -0.004 | [5] 0.002 | [6] 0.022

Reference: the supplement of paper PMC10849652
